The source of these data is publication PMC4756710.

Chains of the proteins cited; added tags and fusions are not shown.
UniProt Q9GZV5: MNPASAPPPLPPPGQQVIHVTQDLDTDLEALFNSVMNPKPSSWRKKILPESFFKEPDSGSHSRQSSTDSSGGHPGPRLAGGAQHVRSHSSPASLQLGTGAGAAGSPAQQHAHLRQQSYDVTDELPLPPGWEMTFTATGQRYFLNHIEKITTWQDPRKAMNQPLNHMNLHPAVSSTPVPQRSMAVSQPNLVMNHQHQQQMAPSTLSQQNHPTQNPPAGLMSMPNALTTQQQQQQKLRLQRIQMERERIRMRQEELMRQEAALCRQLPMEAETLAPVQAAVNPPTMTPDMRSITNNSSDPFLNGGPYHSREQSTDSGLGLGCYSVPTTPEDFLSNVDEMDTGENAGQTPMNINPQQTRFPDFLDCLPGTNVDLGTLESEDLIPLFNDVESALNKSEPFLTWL

The experiment concerns the target T1, HA-tagged WT ZEB1, full length, in vitro synthesized (UniProt P37275).
T1 sequence: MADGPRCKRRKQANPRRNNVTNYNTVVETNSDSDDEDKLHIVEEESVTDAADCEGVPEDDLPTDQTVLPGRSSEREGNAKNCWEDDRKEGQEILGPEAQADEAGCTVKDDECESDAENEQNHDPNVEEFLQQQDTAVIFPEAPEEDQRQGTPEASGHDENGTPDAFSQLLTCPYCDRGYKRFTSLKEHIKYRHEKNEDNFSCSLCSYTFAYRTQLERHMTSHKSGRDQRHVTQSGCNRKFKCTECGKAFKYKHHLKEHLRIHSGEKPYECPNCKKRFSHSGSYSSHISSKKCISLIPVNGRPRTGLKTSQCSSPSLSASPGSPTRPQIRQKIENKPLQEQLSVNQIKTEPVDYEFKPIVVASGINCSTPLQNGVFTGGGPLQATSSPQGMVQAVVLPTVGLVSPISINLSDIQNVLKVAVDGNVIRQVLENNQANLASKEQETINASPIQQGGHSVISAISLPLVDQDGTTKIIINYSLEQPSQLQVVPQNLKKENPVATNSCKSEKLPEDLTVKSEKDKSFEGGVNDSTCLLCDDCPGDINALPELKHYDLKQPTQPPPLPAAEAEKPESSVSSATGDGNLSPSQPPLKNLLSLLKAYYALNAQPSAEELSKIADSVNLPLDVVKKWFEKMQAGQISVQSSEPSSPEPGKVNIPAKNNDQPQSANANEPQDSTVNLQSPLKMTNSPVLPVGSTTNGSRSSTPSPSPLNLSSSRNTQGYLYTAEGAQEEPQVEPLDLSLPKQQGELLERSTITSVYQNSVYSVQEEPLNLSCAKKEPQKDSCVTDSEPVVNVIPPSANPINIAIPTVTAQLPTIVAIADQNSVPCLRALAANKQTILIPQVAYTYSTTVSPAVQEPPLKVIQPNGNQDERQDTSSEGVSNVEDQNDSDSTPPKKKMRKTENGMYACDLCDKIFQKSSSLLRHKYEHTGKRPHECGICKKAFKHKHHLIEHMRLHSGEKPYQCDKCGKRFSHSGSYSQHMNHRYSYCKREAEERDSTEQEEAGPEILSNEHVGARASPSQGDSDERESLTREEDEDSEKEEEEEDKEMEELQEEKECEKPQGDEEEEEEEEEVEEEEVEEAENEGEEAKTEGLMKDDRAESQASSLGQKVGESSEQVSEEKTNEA
The experiment in a line: pull-down; in vitro translated proteins (wheat germ) incubated in pull-down buffer (250 mM sucrose, 10 mM MOPS/KOH pH 7.2, 80 mM KCl, 5 mM MgCl2, 5 mM KH2PO4) 1 h at 37 °C; HA-ZEB1 held on anti-HA affinity matrix, 1 h at 4 °C, five washes; western blot (anti-His).

Results are given in words; binding and its absence hold for the method and conditions named. Binding seen in cells or lysates may run through a third protein. Tags and fused reporters may be left off the sequences shown.

As for “His-tagged WT TAZ, full length, in vitro synthesized (from UniProt Q9GZV5 1-400)”, the binding entry is “no binding”.
